Test results: patent publication US20110268818A1, “NGAL-BINDING SIDEROPHORES AND USE THEREOF TO TREAT IRON DEFICIENCY AND IRON OVERLOAD” (priority 2008, published 2011)
For some of these results: At least one compound was matched to its structure with a doubt left. Some results were stated once for a whole list of compounds, not compound by compound.

Sequences of proteins named here, by UniProt entry; tags and fusion partners are left off. Residues count along the entry.
UniProt P80188, 21-198: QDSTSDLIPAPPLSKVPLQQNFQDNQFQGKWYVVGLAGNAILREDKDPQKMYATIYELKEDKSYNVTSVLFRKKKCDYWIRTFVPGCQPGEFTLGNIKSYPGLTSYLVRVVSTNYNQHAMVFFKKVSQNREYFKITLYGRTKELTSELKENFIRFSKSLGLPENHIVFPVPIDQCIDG

Columns and labels:
NGAL = target: T1, NGAL (Homo sapiens, UniProt P80188); test: Release of ligands and iron from NGAL complexes by acidification; format: physicochemical; conditions: fluorescence and 55Fe release
T1 construct: made in house; host or cells: E. coli BL-21
Text: FIGS. 6A-6C. Release of ligands from NGAL by acidification. […] Fluorescence was quenched by ligand binding. Upon acidification, the ligands were released and fluorescence returned to baseline. Subsequent basification, where relevant, caused rebinding. Note that NGAL:pyrogallol and 2,3-dihydroxybenzoic acid complexes required much lower pH for dissociation. (B) Release of ^55Fe from different NGAL:catecholate complexes by low pH washes on a 10 KDa microcon. For this comparison, the retention of iron at pH7.0 was defined as 100%. […] Data were presented as mean±Std.
To transport iron from plasma to cells there has to be a mechanism for releasing iron from the complex. Intracellular delivery of iron by transferring is known to require passage through acidified endosomes where iron is released. […] While the complex was stable at neutral pH, acidification below pH 7.0 progressively reversed ligand-dependent fluorescence quenching of NGAL and released iron (FIG. 6A, B).
Fluorescence quenching binding assay. […] The pH was adjusted until the fluorescence signal stopped changing, while fluorescence values were corrected for dilution. Data were analyzed by a nonlinear regression analysis using a one-site binding model (Kuzmic, P. (1996). Program DYNAFIT for the analysis of enzyme kinetic data: application to HIV proteinase. Anal. Biochem. 237, 260-273). […]

[1] = Siderophore:iron binding assay (paper chromatography); conditions: 55Fe mobilised by compound on paper chromatogram developed in water; Yes/No
Text: Siderophore:Iron Binding Assay. To test whether candidates bound iron directly, candidates (1 nmole) were mixed with ^55Fe (1 pmole), and then separated bound from free ^55Fe using paper chromatography developed in water.
Paper chromatography: The Fe-Siderophore Binding Assay: The concept underlying the Ngal-siderophore-Fe binding assay is that the urinary molecule provides an iron binding siderophore, and that the Ngal protein provides the carrier which retains the siderophore:Fe on the 10 KDa filter. […] To directly test this idea, we will mix 55Fe with HMDB compounds and then separate bound from free 55Fe by using paper chromatography. […] The assay also provides an independent means to follow the purification of the urinary siderophore. Using this assay, we can measure the specific activity of the fractions to identify the peak activity, as well as to compare the urinary fraction with enterochelin to establish relative units of activity.

SMILES	pH at which the NGAL:ligand:iron complex dissociates (NGAL) [pH]	Fe: Chromatography [1]
O=C(O)c1cccc(O)c1O [2,3- Dihydroxybenzoic acid]	< 4	
O=C(O)Cc1c[nH]c2ccc(O)cc12 [5-Hydroxy-indoleacetic acid]		No
Oc1cccc(O)c1O [Benzene 1,2,3 Trial (Pyrogallol)]	< 4	
C=CC1=C(C)c2cc3[nH]c(cc4nc(cc5[nH]c(cc1n2)c(C)c5CCC(=O)O)C(CCC(=O)O)=C4C)c(C)c3C=C [Protoporphyrin IX]		No
